Measurements taken from the M2OR odorant receptor database.
This is a selection; strong and weak results do not stand in their true shares. Calls are pooled over several reports, among them a noisy single-well screen. Some of the results follow.

Legend:
Conditions in all cases: stereoisomer not certain
[1] = biological target: T1, OR6K2 (Homo sapiens) (UniProt Q8NGY2)
T1 sequence (whole entry): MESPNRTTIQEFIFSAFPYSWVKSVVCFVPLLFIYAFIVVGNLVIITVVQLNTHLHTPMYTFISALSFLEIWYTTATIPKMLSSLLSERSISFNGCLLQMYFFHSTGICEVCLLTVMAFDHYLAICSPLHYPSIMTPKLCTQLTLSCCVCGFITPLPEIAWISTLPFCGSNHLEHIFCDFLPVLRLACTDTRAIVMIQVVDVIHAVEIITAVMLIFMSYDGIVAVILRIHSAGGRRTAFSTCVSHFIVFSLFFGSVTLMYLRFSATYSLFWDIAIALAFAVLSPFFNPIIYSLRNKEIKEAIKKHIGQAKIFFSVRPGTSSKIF
In short: (§1)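 Whether a receptor–molecule pair is responsive (active) rests on the original authors' judgment that its measured signal was statistically different from baseline. Pairs without that judgment are non-responsive (inactive). Sources used varied assay methods, commonly transient luciferase assays in mammalian cell lines.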

[2] = system: T2, OR6K3
T2 sequence (whole entry): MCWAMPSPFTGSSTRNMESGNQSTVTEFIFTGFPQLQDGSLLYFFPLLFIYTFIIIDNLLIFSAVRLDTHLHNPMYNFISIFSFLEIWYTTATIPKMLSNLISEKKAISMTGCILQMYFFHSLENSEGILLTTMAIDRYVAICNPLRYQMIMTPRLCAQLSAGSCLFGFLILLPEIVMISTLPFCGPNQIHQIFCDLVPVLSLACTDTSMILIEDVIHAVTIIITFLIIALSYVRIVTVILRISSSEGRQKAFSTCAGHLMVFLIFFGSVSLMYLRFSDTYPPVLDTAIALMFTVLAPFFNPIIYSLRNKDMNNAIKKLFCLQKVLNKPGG
In short: as §1

[3] = system: T3, OR6K3; remark: listed apart in the source
T3 sequence (whole entry): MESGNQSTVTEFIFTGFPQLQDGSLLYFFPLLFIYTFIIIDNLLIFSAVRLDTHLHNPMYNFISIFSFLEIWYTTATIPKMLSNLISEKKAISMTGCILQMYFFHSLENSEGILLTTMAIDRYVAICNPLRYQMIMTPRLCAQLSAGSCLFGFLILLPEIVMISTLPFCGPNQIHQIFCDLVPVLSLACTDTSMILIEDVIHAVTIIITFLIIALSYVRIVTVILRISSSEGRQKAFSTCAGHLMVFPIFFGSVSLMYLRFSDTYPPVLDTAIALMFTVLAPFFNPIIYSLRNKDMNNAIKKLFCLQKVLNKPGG
In short: as §1

[4] = system: T4, OR6K6
T4 sequence (whole entry): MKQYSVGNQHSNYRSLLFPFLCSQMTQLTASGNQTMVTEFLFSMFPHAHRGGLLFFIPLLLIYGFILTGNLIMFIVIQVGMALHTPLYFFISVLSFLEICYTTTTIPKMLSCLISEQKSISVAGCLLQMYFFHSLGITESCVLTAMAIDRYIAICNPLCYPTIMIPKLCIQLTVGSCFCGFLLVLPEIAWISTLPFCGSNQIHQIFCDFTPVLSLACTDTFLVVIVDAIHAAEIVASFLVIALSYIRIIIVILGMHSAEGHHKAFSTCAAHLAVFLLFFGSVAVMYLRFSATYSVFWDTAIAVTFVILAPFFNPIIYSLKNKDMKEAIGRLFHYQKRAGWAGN
In short: as §1

[5] = system: T5, OR6K6; remark: listed apart in the source
T5 sequence (whole entry): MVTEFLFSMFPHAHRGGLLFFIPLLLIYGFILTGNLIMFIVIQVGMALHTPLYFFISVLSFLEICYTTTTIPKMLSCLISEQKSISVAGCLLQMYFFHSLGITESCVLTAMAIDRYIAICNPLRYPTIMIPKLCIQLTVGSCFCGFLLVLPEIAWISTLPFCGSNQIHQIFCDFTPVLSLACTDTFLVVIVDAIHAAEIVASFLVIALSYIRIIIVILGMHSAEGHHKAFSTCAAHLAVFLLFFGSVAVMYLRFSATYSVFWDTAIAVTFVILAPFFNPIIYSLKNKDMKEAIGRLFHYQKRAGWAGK
In short: as §1

[6] = biological target: T6, OR6M1 (Homo sapiens) (UniProt Q8NGM8)
T6 sequence (whole entry): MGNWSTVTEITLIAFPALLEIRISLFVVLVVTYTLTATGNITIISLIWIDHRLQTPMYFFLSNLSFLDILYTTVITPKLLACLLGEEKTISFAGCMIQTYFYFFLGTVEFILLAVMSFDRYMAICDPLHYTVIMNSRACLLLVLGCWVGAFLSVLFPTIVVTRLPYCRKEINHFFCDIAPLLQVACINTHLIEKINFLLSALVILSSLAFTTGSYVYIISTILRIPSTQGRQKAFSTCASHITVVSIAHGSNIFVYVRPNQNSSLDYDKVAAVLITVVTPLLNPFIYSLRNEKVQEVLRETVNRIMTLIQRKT
In short: as §1

[7] = system: T7, OR6N1
T7 sequence (whole entry): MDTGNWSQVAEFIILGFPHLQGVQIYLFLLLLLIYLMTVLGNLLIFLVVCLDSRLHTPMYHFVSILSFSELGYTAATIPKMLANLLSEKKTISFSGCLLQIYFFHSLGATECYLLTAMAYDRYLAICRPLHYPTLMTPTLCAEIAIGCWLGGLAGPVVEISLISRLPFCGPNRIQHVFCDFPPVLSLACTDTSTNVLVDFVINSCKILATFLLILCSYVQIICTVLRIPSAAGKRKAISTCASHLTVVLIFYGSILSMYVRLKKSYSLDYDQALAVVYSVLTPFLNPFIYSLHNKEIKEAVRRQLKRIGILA
In short: as §1

[8] = biological target: T8, OR6N2 (Homo sapiens) (UniProt Q8NGY6)
T8 sequence (whole entry): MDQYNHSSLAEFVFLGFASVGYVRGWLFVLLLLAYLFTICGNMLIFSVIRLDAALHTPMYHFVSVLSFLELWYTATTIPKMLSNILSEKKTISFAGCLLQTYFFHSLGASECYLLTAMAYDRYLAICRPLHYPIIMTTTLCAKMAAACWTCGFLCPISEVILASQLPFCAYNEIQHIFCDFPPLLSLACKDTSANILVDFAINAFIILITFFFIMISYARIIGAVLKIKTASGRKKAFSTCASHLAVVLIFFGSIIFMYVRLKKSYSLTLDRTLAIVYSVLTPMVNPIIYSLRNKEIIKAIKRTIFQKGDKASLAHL
In short: as §1

[9] = biological target: T9, OR6P1 (Homo sapiens) (UniProt Q8NGX9)
T9 sequence (whole entry): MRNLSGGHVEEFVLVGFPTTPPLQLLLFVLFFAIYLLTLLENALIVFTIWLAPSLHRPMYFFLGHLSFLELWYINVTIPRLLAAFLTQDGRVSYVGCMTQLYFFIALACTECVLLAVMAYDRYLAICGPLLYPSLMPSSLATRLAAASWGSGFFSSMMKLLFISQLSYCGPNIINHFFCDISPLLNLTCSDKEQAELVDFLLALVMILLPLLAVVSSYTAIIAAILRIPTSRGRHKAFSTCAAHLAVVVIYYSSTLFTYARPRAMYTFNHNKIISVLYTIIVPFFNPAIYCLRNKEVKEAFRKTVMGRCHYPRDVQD
In short: as §1

[10] = biological target: T10, OR6Q1 (Homo sapiens) (UniProt Q8NGQ2)
T10 sequence (whole entry): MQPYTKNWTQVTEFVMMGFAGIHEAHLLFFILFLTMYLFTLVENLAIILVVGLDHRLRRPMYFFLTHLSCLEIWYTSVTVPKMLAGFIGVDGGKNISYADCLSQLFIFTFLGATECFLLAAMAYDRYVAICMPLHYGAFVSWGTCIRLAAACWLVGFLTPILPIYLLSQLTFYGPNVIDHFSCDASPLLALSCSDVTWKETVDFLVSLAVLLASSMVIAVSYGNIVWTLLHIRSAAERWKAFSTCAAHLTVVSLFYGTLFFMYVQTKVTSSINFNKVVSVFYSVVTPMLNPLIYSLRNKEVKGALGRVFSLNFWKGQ
In short: as §1

Measured: odorant receptor agonist call;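 note: active if original authors judged signal statistically different from baseline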

CCCCOC(C)=O
inactive: all assays above
